# Source: paper PMC10403730, “PABPN1 aggregation is driven by Ala expansion and poly(A)-RNA binding, leading to CFIm25 sequestration that impairs alternative polyadenylation”
# Key:
# [1] = target: EGFP-PABPN1-17A-ΔCT N-terminal,A,stretch,expanded,from,10,to,17 (Homo sapiens) (UniProt Q86U42); assay: EMSA; details: 2 nM dA50, weaker than 10A-ΔCT; 50 mM Tris-HCl, 150 mM NaCl, 2 mM MgCl2, pH 7.5, 30 min at room temperature; 6% native gel; recombinant protein; residues 1-254; protein details: N-terminal EGFP, C-terminal His; label: 5'-Cy5; single-stranded DNA
# [2] = target: T1, EGFP-PABPN1-10A-RRMMut-ΔCT F215A,Y217A (Homo sapiens) (UniProt Q86U42); assay: EMSA; details: 2 nM dA50, 0-5 uM protein, RRM mutation weakened association considerably; 50 mM Tris-HCl, 150 mM NaCl, 2 mM MgCl2, pH 7.5, 30 min at room temperature; 6% native gel; recombinant protein; residues 1-254; protein details: N-terminal EGFP, C-terminal His; label: 5'-Cy5; single-stranded DNA
# T1 sequence (looked up): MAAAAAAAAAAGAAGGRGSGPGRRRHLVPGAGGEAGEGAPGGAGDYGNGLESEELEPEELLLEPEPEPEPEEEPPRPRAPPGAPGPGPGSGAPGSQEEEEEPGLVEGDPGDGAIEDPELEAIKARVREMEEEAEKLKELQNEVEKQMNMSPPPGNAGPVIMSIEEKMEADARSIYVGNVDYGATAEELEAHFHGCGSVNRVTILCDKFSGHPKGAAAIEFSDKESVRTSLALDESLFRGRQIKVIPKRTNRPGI
sequence,measurement,setting,value
AAAAAAAAAAAAAAAAAAAAAAAAAAAAAAAAAAAAAAAAAAAAAAAAAA [Cy5-dA50],binding result,[1],binds more weakly
same,binding result,[2],binds more weakly

# The comparison behind a weaker result is the experiment's own reference, which may not be listed here. For some assays here: Where a protein sequence is shown, tags need not be part of it. For some assays here: The exact form of at least one protein or probe is not confirmed.
